Test results reported in the supplement of paper PMC10849652.
The other results are listed elsewhere or left out.

Amino acid sequences for entries named in this document (tags omitted). A change or cut given only in a name is not applied to a line headed by its entry.
UniProt Q8TDR0: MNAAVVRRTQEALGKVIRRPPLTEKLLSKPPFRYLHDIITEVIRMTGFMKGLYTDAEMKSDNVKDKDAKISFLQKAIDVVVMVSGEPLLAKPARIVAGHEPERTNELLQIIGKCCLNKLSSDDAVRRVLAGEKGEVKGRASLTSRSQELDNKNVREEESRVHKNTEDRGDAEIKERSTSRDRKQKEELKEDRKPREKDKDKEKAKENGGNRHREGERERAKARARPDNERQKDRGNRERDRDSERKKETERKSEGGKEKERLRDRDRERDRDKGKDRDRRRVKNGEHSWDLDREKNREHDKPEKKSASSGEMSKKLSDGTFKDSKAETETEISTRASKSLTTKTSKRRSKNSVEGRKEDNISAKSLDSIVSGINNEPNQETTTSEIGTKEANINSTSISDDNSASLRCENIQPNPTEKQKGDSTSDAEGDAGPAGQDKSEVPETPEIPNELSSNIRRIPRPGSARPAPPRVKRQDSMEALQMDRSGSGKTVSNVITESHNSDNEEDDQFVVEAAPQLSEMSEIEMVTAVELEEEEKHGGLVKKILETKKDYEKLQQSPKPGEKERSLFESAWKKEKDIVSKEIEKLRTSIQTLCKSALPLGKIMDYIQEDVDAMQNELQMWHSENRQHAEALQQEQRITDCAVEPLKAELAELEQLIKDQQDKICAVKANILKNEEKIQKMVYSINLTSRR
UniProt O95271: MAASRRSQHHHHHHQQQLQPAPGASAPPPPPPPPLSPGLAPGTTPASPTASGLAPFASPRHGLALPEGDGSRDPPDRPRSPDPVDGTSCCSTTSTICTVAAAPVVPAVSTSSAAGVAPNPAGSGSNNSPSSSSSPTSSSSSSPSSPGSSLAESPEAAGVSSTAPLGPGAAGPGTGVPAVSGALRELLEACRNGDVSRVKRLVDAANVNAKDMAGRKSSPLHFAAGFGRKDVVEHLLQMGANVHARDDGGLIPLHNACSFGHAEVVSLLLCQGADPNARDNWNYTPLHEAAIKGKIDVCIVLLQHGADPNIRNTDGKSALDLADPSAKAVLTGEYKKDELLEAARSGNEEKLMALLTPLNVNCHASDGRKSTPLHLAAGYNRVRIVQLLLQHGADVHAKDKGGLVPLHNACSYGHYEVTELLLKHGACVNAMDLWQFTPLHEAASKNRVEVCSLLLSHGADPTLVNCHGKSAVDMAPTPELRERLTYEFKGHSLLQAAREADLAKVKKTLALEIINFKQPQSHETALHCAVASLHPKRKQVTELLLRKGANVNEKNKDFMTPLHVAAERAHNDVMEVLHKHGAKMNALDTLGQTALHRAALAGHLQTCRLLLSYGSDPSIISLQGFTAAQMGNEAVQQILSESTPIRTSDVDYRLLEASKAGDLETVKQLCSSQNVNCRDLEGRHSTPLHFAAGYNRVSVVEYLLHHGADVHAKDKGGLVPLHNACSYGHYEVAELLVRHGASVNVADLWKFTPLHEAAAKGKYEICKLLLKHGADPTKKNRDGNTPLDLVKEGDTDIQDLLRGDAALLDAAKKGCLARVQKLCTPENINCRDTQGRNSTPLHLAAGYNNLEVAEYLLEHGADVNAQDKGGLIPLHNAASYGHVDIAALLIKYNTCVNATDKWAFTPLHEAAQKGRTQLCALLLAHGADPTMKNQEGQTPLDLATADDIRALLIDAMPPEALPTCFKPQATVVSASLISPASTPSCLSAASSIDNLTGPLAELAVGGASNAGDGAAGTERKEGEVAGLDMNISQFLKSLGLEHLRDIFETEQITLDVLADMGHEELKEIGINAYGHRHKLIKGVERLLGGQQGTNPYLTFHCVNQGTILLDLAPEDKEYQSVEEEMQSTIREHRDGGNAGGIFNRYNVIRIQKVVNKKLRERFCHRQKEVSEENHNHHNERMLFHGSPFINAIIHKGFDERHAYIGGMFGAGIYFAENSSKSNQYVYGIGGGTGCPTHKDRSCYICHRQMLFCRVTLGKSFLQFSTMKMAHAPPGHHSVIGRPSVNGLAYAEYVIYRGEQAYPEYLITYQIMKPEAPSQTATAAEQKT
UniProt Q9UKE5: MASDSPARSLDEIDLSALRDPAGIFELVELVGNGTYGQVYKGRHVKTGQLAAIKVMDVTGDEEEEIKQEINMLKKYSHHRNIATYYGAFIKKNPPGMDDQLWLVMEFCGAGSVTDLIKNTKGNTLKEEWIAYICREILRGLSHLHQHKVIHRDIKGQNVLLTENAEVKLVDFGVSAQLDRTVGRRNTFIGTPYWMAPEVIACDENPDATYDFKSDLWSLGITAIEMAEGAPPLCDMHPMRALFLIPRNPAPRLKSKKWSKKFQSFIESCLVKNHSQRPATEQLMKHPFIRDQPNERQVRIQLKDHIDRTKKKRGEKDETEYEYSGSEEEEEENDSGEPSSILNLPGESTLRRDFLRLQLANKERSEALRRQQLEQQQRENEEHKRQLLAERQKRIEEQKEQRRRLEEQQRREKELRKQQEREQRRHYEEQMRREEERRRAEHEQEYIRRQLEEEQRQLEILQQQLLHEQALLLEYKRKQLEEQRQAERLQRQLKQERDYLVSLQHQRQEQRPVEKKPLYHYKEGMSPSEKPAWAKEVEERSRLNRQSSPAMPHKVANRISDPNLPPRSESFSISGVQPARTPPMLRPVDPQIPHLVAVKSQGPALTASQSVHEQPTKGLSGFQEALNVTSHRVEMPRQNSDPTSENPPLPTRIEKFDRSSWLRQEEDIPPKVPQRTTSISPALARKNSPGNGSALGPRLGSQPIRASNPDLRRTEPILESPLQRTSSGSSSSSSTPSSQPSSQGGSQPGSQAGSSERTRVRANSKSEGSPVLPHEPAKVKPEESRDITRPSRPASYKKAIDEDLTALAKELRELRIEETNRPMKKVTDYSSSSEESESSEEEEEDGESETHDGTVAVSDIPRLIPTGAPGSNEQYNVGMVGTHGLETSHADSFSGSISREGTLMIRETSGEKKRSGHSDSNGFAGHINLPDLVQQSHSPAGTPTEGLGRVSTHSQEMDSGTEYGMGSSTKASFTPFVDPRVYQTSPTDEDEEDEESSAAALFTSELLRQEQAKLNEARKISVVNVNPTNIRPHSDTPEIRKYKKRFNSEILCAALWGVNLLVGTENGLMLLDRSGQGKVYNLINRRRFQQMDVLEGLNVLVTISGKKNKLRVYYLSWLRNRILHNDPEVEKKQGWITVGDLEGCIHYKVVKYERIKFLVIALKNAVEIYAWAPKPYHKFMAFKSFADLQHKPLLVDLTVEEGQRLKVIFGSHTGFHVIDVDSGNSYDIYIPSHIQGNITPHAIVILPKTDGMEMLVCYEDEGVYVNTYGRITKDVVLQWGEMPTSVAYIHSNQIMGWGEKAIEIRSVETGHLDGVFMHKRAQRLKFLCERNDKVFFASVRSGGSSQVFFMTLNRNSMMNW
UniProt Q9C035: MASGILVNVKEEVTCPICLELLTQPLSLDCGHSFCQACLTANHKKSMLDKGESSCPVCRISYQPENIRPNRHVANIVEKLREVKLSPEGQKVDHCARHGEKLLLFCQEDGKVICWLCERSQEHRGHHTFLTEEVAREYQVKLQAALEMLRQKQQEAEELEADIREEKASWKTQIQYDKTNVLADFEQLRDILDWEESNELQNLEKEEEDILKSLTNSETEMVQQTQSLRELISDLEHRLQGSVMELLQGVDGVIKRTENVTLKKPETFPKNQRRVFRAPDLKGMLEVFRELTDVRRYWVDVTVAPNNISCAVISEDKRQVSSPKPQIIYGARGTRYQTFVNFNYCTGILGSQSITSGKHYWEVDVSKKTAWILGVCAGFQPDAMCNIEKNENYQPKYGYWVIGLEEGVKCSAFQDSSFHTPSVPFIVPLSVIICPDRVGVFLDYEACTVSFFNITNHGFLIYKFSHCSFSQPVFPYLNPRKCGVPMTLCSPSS
UniProt Q15035: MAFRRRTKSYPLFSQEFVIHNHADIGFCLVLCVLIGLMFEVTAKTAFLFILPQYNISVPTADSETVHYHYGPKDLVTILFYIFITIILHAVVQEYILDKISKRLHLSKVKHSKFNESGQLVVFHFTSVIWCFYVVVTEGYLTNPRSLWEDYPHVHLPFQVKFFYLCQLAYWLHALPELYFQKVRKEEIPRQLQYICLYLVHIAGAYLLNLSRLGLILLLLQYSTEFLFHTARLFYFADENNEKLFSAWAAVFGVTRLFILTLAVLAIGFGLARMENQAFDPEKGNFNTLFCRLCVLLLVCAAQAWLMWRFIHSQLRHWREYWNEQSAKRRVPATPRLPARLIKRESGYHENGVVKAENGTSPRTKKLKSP
UniProt Q15025: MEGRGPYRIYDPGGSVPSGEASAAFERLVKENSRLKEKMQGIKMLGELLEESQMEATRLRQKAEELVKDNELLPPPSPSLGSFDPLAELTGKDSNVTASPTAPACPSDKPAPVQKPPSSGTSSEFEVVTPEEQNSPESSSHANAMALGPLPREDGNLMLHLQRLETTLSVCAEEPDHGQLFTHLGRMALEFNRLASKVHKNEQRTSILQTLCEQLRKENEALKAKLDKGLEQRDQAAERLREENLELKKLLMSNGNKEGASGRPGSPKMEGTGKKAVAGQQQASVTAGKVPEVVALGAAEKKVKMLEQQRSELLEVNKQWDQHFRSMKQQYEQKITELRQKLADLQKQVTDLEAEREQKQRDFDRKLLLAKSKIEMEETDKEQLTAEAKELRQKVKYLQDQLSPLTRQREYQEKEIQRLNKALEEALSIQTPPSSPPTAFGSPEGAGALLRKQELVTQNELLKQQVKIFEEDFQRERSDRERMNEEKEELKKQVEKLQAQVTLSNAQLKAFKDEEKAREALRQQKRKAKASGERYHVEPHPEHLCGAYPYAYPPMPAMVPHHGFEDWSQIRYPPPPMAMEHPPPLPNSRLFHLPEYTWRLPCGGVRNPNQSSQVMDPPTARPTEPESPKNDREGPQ
UniProt Q86W33: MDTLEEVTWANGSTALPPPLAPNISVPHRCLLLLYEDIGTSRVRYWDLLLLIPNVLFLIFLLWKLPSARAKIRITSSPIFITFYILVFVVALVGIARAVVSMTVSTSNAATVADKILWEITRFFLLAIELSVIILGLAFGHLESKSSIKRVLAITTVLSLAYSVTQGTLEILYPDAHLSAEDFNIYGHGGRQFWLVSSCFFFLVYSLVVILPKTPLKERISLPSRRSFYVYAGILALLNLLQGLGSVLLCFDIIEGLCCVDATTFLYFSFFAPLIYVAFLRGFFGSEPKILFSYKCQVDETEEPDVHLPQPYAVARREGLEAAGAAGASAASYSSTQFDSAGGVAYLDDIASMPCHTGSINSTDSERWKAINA
UniProt P19474, whole entry, looked up: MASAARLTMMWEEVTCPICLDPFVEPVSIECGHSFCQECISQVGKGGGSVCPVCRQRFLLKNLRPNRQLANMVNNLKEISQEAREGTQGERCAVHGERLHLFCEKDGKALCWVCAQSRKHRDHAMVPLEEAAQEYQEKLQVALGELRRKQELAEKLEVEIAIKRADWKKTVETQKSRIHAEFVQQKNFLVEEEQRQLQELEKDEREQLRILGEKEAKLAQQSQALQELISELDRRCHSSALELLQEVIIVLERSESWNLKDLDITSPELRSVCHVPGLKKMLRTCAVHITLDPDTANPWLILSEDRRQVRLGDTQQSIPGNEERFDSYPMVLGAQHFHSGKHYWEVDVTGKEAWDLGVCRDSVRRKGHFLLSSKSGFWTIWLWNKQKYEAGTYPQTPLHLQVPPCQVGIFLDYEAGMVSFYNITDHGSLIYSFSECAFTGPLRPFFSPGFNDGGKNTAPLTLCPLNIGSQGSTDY
UniProt O75865, whole entry, looked up: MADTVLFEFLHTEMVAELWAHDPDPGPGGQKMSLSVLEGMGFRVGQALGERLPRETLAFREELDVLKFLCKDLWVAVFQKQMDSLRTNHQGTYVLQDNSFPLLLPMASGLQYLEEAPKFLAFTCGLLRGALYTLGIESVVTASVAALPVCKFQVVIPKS
UniProt Q96GJ1: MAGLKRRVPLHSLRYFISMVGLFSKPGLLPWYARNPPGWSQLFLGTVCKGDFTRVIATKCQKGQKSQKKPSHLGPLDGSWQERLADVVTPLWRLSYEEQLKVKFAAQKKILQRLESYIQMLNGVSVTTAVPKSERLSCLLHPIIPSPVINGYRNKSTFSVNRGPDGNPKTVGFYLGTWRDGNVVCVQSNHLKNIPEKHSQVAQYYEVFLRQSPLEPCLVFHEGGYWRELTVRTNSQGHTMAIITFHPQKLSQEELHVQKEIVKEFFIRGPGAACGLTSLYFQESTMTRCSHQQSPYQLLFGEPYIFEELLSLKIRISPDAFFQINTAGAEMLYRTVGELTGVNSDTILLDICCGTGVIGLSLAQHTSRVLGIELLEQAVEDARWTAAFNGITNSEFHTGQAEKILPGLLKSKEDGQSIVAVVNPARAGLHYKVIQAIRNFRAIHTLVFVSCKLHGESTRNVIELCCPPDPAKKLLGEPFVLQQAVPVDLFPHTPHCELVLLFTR
UniProt Q9H496: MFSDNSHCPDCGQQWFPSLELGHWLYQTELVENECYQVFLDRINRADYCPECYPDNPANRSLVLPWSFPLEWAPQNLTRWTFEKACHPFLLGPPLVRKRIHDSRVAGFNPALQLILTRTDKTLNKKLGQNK

These targets were tested with COC1=CC=C(C=C1)CN2C=CC3=C2C=C(C=C3)C(=O)NO (assay: log2 fold change, soluble protein after heating vs DMSO (PISA); higher = thermal stabilisation; K562 cells, 10 uM, 30 min; active = over 0.2 and 3.5 SD of the protein, either way, in both replicates (recomputed)).
How it was run: (§1)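 K562 cells (2×10^6 cells/mL) were treated with 10 μM compound for 30 min, and aliquots were heated for 3 min over 48°C-58°C. Pooled aliquots were extracted in PBS with 0.5% NP-40 at 4°C, and the supernatant after 21,000xg for 90 min was measured by TMTpro 16plex LC-MS/MS with channel sums equalised. Reported thermal stability, relative to control samples and from duplicates, is a log2 fold change.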

log2 fold change, inactive:
TRAF3IP1 (UniProt Q8TDR0) -0.214, TRIM65 (UniProt Q6PJ69) -0.117, TSC1 (UniProt Q92574) 0.187, TNKS (UniProt O95271) 0.242, TNIK isoform 3 (UniProt Q9UKE5) -0.021, TNXB isoform 4 (UniProt P22105) 0.13, TRIP12 isoform 3 (UniProt Q14669) -0.082, TRMT5 (UniProt Q32P41) -0.072, TRIT1 (UniProt Q9H3H1) -0.026

The targets below were run with CON(C)C(=O)N1N=C(c2cc(F)ccc2F)S[C@@]1(CCCN)c1ccccc1 [filanesib] in the same assay as above.
How it was run: as §1

log2 fold change, inactive:
TRIM5 (UniProt Q9C035) 0.121, TRAM2 (UniProt Q15035) -0.147, TPRG1L (UniProt Q5T0D9) -0.152, TNIP1 (UniProt Q15025) 0.023, TRPM4 (UniProt Q8TD43) 0.066, TRIM33 isoform 2 (UniProt Q9UPN9) -0.225, TPRA1 (UniProt Q86W33) -0.108

What follows are targets tested with CO[C@H]1C[C@@H]2CC[C@@H](C)[C@@](O)(O2)C(=O)C(=O)N2CCCC[C@H]2C(=O)O[C@H]([C@H](C)C[C@@H]2CC[C@H](n3cnnn3)[C@H](OC)C2)CC(=O)[C@H](C)/C=C(\C)[C@@H](O)[C@@H](OC)C(=O)[C@H](C)C[C@H](C)/C=C/C=C/C=C/1C [zotarolimus] in the same assay as above.
How it was run: as §1

log2 fold change, inactive:
TRIM5 (UniProt Q9C035) -0.066, TRAF3IP1 (UniProt Q8TDR0) -0.218, TRIM65 (UniProt Q6PJ69) -0.077, TSC1 (UniProt Q92574) 0.184, TRIM21 (UniProt P19474) -0.11, TRAM2 (UniProt Q15035) -0.047, TNIK isoform 3 (UniProt Q9UKE5) -0.07, TRIT1 (UniProt Q9H3H1) 0.092, TRAPPC2 isoform 3 (UniProt P0DI81) 0.066, TRPS1 isoform 2 (UniProt Q9UHF7) -0.298, TRAPPC6A isoform 2 (UniProt O75865) 0.117, TRMT2B (UniProt Q96GJ1) -0.243

Each target was assayed with COc1cc(C(=O)O)ccc1NC(=O)[C@@H]1N[C@@H](CC(C)(C)C)[C@](C#N)(c2ccc(Cl)cc2F)[C@H]1c1cccc(Cl)c1F [idasanutlin] in the same assay as above.
How it was run: as §1

log2 fold change, inactive:
TRIM5 (UniProt Q9C035) -0.086, TRAF3IP1 (UniProt Q8TDR0) -0.032, TSC1 (UniProt Q92574) 0.09, TNKS (UniProt O95271) 0.323, TRIM21 (UniProt P19474) -0.196, TRAM2 (UniProt Q15035) 0.038, TNIK isoform 3 (UniProt Q9UKE5) -0.067, TRADD (UniProt Q15628) -0.095, TPD52L2 isoform 3 (UniProt O43399) -0.375, TRMT5 (UniProt Q32P41) 0.06, TRAPPC2 isoform 3 (UniProt P0DI81) 0.008, TPRA1 (UniProt Q86W33) -0.138, TRMT2B (UniProt Q96GJ1) -0.039, TRIM27 (UniProt P14373) 0.003

These targets were tested with COc1cc(Nc2ncc3c(n2)-c2ccc(Cl)cc2C(c2c(F)cccc2OC)=NC3)ccc1C(=O)O [alisertib] in the same assay as above.
How it was run: as §1

log2 fold change, inactive:
TRIM21 (UniProt P19474) -0.068, TNIK isoform 3 (UniProt Q9UKE5) -0.054, TRADD (UniProt Q15628) 0.278, TPRG1L (UniProt Q5T0D9) 0.202, TNXB isoform 4 (UniProt P22105) -0.874, TNIP1 (UniProt Q15025) -0.035, TRIP12 isoform 3 (UniProt Q14669) 0.008, TPD52L2 isoform 3 (UniProt O43399) 0.05, TNRC6A (UniProt Q8NDV7) 0.156, TRAPPC2 isoform 3 (UniProt P0DI81) 0.066, TRIM33 isoform 2 (UniProt Q9UPN9) 0.327, TRAPPC6A isoform 2 (UniProt O75865) -0.011, TPRA1 (UniProt Q86W33) 0.117, TRMT2B (UniProt Q96GJ1) 0.215, TRIM29 (UniProt Q14134) -0.02, TOR1AIP2 (UniProt Q9H496) 0.099

These targets were tested with COc1cc2nc(-c3cc(F)ccc3O)nc(N[C@@H]3CNC[C@H]3C(C)(C)O)c2cc1OC in the same assay as above.
How it was run: as §1

log2 fold change, inactive:
TSC1 (UniProt Q92574) -0.123, TNKS (UniProt O95271) 0.225, TRIM21 (UniProt P19474) 0.007, TRAM2 (UniProt Q15035) -0.022, TNIK isoform 3 (UniProt Q9UKE5) 0.058, TPRG1L (UniProt Q5T0D9) -0.326, TNIP1 (UniProt Q15025) 0.264, TRAPPC2 isoform 3 (UniProt P0DI81) -0.015, TRAPPC6A isoform 2 (UniProt O75865) 0.045, TRMT2B (UniProt Q96GJ1) -0.118
